Our source for the binding values is US20250179195A1.

Sequences of proteins named here, by UniProt entry; tags and fusion partners are left off. A change or cut given only in a name is not applied to a line headed by its entry. Residues count along the entry.
UniProt P36888: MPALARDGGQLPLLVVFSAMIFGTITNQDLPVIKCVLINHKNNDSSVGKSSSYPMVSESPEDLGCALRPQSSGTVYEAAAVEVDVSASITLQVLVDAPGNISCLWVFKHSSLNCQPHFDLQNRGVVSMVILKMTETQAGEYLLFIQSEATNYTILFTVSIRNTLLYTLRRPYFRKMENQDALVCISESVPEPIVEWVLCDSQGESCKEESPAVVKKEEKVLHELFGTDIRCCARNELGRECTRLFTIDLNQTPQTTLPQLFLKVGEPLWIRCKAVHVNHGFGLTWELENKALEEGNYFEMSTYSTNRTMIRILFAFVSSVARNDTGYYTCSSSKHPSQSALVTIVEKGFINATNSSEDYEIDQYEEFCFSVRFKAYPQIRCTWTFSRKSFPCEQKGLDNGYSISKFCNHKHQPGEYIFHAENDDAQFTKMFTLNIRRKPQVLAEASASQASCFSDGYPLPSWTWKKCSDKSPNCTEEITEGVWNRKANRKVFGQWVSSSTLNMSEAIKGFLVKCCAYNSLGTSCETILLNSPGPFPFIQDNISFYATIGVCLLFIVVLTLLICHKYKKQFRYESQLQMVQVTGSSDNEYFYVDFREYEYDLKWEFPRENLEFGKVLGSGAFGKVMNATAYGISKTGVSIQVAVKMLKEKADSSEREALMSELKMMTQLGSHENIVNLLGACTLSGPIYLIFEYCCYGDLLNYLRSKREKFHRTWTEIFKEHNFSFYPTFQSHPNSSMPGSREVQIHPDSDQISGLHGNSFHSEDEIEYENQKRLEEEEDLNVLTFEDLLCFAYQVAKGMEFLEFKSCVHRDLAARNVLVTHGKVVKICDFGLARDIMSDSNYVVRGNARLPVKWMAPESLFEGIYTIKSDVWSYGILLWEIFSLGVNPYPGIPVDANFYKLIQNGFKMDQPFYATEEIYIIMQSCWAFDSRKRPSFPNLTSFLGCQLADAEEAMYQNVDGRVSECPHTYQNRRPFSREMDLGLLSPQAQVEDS
UniProt P49771, residues 27-185: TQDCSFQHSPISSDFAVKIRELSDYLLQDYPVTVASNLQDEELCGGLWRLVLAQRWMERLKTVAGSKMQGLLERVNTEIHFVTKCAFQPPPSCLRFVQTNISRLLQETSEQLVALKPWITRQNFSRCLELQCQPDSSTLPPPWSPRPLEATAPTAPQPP

Results are given in words; binding and its absence hold for the method and conditions named. Some binding calls cover weakened binding; strength is not graded here.

The target of this assay is recombinant human FLT3 ECD his-tagged fusion receptor (Sino Biological) (human) (UniProt P36888). The assay can be described thus: bio-layer interferometry (Octet QK384); FLT3-his immobilized on anti-penta-HIS (HIS1K) biosensor; 100 nM FLT3L without antibody, 300 s association. A general note: In BLI a coated tip is dipped into the sample, and binding shifts an interference pattern.

“FLT3 ligand (from UniProt P49771 27-185)”: the binding entry is given as “binds”.
